Measured values as given in article PMC9420732.
No constants are given. Whether binding was seen depends on the method and setting. Binding seen in cells or lysates may run through a third protein. Some entries that bind do so weakly or less than the wild type.

Chains of the proteins cited; added tags and fusions are not shown. Residues count along the entry.
UniProt P05622, residues 32-1098: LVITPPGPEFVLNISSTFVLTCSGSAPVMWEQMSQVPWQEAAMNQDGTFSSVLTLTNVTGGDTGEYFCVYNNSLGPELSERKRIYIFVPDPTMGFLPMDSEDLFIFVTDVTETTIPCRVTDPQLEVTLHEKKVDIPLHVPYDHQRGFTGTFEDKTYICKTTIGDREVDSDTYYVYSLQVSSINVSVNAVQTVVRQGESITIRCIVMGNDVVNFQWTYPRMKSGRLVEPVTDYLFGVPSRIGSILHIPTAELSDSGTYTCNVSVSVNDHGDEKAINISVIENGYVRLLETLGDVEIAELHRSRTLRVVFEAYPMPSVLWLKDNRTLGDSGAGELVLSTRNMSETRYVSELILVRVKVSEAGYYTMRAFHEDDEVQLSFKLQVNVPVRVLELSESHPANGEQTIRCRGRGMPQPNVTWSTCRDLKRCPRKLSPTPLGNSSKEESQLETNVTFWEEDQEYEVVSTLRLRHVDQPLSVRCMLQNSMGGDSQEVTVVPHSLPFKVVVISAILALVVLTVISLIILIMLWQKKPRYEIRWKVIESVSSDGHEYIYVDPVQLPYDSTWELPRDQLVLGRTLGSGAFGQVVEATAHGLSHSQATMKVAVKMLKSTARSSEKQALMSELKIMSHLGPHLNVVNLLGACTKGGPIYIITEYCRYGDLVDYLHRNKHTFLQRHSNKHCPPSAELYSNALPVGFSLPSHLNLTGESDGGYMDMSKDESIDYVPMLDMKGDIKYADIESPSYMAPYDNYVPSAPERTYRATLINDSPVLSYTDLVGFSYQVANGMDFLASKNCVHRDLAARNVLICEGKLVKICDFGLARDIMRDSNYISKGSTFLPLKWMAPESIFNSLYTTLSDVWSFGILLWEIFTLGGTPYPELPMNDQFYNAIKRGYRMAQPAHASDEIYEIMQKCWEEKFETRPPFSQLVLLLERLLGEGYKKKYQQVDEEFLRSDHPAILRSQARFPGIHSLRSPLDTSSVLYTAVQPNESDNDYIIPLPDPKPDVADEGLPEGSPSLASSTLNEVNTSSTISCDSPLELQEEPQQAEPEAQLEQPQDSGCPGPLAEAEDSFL
UniProt P34152: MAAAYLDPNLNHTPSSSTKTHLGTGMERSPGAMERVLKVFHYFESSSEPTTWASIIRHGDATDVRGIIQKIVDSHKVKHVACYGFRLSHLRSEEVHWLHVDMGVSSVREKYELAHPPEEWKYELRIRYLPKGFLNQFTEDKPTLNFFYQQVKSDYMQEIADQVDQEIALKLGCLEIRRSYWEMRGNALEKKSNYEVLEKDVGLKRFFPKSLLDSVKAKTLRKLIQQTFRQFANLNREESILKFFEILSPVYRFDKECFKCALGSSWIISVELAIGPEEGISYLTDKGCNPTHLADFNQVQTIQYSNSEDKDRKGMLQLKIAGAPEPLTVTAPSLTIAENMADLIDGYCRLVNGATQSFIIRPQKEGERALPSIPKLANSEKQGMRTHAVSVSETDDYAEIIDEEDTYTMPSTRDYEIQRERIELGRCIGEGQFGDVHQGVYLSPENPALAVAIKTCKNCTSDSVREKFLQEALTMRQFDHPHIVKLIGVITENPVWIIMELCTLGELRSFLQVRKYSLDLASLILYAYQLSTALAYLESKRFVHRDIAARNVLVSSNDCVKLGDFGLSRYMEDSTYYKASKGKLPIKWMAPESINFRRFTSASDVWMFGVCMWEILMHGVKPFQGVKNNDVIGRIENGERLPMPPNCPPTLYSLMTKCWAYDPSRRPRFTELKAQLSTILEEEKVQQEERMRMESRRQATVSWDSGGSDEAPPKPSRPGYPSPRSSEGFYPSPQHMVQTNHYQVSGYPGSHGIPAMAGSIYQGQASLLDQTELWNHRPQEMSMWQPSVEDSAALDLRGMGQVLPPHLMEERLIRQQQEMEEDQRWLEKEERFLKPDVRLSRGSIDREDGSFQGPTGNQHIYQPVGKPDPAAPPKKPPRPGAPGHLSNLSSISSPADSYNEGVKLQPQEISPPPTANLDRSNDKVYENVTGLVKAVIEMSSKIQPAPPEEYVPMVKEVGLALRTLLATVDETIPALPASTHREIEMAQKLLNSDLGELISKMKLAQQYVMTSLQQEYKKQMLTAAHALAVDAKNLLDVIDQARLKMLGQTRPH
UniProt P26039: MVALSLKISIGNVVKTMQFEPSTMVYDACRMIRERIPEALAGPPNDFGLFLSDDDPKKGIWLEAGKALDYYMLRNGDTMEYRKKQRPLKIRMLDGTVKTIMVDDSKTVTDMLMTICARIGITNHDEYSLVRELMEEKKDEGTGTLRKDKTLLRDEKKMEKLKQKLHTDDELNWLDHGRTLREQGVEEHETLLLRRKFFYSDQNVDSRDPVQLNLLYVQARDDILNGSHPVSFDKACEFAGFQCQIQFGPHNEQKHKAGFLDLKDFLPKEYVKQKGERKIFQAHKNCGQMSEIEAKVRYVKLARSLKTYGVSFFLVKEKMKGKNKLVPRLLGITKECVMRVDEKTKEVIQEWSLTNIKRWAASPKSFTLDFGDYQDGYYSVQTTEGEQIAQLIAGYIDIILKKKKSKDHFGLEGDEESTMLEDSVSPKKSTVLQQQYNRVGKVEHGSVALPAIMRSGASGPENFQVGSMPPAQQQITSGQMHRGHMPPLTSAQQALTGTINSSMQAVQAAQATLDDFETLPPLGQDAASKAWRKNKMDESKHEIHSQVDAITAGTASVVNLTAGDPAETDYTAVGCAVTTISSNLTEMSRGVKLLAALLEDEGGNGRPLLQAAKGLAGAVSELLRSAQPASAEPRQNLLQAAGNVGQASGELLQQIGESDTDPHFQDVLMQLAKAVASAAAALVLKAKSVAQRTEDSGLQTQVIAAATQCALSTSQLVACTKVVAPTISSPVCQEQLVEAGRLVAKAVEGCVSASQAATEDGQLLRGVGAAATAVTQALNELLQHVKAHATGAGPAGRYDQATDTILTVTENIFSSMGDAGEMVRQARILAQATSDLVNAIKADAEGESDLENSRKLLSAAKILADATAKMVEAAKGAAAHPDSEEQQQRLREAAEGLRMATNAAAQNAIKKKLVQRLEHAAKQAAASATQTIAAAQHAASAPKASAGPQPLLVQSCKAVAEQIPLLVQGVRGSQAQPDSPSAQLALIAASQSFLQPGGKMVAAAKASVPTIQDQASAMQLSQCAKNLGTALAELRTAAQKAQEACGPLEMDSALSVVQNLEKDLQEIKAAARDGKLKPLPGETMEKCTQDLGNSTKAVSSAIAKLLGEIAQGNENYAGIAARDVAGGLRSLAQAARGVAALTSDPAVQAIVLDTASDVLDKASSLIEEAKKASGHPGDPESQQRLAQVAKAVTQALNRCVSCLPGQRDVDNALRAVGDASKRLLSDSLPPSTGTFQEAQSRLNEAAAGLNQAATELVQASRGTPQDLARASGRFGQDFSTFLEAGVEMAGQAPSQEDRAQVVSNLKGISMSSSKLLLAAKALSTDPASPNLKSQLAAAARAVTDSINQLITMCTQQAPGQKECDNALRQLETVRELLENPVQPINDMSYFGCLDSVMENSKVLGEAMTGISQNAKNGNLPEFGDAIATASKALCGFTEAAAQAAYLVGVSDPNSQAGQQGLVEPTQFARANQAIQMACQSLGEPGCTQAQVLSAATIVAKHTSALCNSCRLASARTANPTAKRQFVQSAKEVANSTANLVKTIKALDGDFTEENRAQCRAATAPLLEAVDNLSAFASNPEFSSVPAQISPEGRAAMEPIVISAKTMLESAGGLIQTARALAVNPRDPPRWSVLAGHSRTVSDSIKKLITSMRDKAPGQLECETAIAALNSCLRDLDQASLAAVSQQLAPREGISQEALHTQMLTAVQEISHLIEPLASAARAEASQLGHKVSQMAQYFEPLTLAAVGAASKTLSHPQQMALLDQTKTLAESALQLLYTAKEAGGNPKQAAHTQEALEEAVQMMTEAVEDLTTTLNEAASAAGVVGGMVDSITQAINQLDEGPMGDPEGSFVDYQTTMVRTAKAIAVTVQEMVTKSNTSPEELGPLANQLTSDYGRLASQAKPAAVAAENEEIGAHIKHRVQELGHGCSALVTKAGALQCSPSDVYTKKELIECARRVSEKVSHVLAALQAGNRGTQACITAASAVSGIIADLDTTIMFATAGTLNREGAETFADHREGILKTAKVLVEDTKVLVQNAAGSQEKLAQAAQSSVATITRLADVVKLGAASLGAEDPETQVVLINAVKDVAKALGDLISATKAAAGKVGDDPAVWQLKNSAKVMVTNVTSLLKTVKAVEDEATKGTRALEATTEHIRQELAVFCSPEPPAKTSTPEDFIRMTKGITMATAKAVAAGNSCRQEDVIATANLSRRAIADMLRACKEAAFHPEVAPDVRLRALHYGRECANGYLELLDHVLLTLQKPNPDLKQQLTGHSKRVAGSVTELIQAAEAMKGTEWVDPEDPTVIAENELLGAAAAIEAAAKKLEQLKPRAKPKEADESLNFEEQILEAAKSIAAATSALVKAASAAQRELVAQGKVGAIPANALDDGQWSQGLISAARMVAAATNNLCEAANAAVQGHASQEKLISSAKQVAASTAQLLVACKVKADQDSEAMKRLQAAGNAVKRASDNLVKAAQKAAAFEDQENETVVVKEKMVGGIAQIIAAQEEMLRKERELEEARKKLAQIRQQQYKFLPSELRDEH

Target: platelet-derived growth factor receptor beta (PDGFR-β) (UniProt P05622)
Assay: co-IP; BMEC lysate (0.3% CHAPS, 2 mM EDTA, 40 mM HEPES pH 7.4), with or without PDGF-BB treatment; anti-PDGFR-β antibody overnight at 4 °C, Protein A + G Sepharose; immunoblot for FAK, TLN1 and PDGFR-β

Substance	binding
focal adhesion kinase (FAK) (from UniProt P34152 1-1052) (enzyme)	binds
talin1 (from UniProt P26039 1-2541)	binds
